US20090111753A1, “Nogo-A Polypeptide Fragments, Variant Nogo Receptor-1 Polypeptides, and Uses Thereof” (Yale University, priority 2004, published 2009)
These are yes or no findings as the source states them, for the method shown. Some entries that bind do so weakly or less than the wild type.

Tests used:
Assay in all cases: AP-ligand binding, COS-7
[1] = target: T1, human NgR1 alanine mutant 108 (human) (UniProt Q9BZR6)
T1 sequence: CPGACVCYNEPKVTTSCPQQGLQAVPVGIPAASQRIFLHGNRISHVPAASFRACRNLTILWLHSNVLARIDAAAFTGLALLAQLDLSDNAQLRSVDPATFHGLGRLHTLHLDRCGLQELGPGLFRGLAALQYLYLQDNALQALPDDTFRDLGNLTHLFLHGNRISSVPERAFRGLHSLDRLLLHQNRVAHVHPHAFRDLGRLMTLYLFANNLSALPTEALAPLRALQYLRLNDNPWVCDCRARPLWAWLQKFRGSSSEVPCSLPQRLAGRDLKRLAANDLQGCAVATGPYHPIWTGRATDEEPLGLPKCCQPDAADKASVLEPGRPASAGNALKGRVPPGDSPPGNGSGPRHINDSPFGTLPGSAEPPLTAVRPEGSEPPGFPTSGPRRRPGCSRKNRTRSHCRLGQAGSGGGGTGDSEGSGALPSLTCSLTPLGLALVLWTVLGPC

[2] = target: T2, human NgR1 alanine mutant 143, 144 (human) (UniProt Q9BZR6)
T2 sequence: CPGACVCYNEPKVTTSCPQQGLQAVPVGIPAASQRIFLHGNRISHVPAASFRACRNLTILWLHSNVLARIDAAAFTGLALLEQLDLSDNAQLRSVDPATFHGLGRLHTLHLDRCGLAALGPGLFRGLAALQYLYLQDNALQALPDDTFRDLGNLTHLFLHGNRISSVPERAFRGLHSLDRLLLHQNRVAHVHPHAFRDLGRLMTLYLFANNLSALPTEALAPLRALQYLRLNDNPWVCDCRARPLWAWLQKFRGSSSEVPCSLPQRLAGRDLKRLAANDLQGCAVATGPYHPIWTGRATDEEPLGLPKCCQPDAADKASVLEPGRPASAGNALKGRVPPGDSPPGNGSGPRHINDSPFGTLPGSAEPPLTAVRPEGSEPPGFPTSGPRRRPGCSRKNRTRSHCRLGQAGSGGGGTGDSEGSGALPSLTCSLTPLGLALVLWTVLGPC

[3] = target: T3, human NgR1 alanine mutant 237, 256, 259 (human) (UniProt Q9BZR6)
T3 sequence: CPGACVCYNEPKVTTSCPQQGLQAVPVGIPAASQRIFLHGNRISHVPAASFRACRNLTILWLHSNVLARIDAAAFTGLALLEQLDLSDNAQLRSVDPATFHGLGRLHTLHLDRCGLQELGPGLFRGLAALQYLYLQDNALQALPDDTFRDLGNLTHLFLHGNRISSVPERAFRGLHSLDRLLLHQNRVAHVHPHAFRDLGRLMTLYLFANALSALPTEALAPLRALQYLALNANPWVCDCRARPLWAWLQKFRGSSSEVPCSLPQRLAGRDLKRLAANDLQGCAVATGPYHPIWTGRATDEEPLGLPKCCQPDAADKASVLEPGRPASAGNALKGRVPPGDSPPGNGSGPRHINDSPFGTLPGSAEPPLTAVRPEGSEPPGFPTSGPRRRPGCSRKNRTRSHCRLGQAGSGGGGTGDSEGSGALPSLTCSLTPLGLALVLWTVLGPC

[4] = target: T4, human NgR1 alanine mutant 227 (human) (UniProt Q9BZR6)
T4 sequence: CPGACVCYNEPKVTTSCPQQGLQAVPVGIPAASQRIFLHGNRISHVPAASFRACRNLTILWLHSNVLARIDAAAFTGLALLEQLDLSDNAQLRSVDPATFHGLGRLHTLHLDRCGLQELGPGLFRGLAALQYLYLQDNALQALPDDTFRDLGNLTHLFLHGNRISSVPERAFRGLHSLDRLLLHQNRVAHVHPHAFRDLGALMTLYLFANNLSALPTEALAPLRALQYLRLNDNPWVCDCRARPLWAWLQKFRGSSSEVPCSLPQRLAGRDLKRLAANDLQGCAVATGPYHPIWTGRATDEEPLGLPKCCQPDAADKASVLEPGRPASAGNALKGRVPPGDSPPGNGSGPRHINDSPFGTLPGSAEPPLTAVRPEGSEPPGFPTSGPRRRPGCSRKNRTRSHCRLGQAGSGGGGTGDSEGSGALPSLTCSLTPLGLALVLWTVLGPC

[5] = target: T5, human NgR1 alanine mutant 151 (human) (UniProt Q9BZR6)
T5 sequence: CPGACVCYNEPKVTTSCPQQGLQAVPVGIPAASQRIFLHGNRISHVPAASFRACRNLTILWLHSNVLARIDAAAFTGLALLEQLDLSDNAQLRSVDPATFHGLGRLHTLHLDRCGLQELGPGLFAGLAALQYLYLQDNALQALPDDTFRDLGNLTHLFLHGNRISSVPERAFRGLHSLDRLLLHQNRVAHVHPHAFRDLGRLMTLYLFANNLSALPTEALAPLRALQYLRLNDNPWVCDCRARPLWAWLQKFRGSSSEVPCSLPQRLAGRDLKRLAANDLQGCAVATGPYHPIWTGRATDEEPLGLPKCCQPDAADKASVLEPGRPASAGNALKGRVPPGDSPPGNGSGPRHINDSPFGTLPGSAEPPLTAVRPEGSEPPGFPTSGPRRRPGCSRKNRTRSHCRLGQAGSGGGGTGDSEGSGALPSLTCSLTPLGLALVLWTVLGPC

Measured: binding

B1: AP-fused Amino-Nogo fragment B4C (a.a. 950-1018) (ligand)
chain: LLPPDVSALATQAEIESIVKPKVLVKEAEKKLPSDTEKEDRSPSAIFSAELSKTSVVDLLYWRDIKKTG
notes: also called AmNg B4C; AP-B4C; not shown: alkaline phosphatase (AP), vector pcAP6
binds: all assays above

B2: AP-Nogo-66 (ligand, UniProt Q9NQC3 1055-1120, looked up)
chain: RIYKGVIQAIQKSDEGHPFRAYLESEVAISEELVQKYSNSALGHVNCTIKELRRLFLVDDLVDSLK
notes: domain: Nogo-66; construct described elsewhere (Fournier 2001); also called AP-Ng66; Ng66; not shown: alkaline phosphatase (AP); construct described elsewhere
binds: all assays above
